# Data from the supplement of paper PMC8728848.
# The list shows a part of the results.
# Columns and labels:
# Experiment in all cases: glycan array binding signal (z-score within array); higher = stronger binding
# Conditions in all cases: glycan notation: IUPAC condensed, linker removed
# [1] = molecular target: GalNAc(b1-4)GlcNAc(b1-2)Man
# Procedure, shortened: (§1)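 Glycan array data were curated from 3228 arrays in the Consortium for Functional Glycomics database and kept only where the protein sequence was available. Glycan names were converted to IUPAC-condensed notation, and columns mapping to the same glycan were averaged. The binding signal is a within-array Z-score, averaged across arrays of the same protein sequence at different concentrations or buffers and across linkers. Negative Z-scores can be read as non-binding.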
# [2] = molecular target: GalNAc(b1-4)GlcNAc(b1-2)Man(a1-3)[GalNAc(b1-4)GlcNAc(b1-2)Man(a1-6)]Man(b1-4)GlcNAc(b1-4)GlcNAc
# Procedure, shortened: as §1
# [3] = molecular target: GalNAc(b1-4)GlcNAc(b1-3)GalNAc(b1-4)GlcNAc
# Procedure, shortened: as §1
# GalNAc(b1-4)GlcNAc6S = molecular target: GalNAc(b1-4)GlcNAc6S
# Procedure, shortened: as §1
# GalNAc(b1-6)GalNAc = molecular target: GalNAc(b1-6)GalNAc
# Procedure, shortened: as §1
# GalNAc3S(b1-4)GlcNAc = molecular target: GalNAc3S(b1-4)GlcNAc
# Procedure, shortened: as §1
# GalNAc3S(b1-4)GlcNAc3S = molecular target: GalNAc3S(b1-4)GlcNAc3S
# Procedure, shortened: as §1
# [4] = molecular target: GalNAc3S(b1-4)[Fuc(a1-3)]GlcNAc
# Procedure, shortened: as §1
# GalNAc4S6S(b1-4)GlcNAc = molecular target: GalNAc4S6S(b1-4)GlcNAc
# Procedure, shortened: as §1
# GalNAc6S(b1-4)GlcNAc = molecular target: GalNAc6S(b1-4)GlcNAc
# Procedure, shortened: as §1
# Glc(a1-4)Glc = molecular target: Glc(a1-4)Glc
# Procedure, shortened: as §1
# [5] = molecular target: Glc(a1-4)Glc(a1-4)Glc(a1-4)Glc
# Procedure, shortened: as §1
# Glc(a1-6)Glc(a1-6)Glc = molecular target: Glc(a1-6)Glc(a1-6)Glc
# Procedure, shortened: as §1
# [6] = molecular target: Glc(a1-6)Glc(a1-6)Glc(a1-6)Glc
# Procedure, shortened: as §1
# Glc(b1-4)Glc = molecular target: Glc(b1-4)Glc
# Procedure, shortened: as §1
# Glc(b1-6)Glc = molecular target: Glc(b1-6)Glc
# Procedure, shortened: as §1
# GlcA(b1-3)Gal = molecular target: GlcA(b1-3)Gal
# Procedure, shortened: as §1
# GlcA(b1-3)GlcNAc = molecular target: GlcA(b1-3)GlcNAc
# Procedure, shortened: as §1
# GlcA(b1-6)Gal = molecular target: GlcA(b1-6)Gal
# Procedure, shortened: as §1
# [7] = molecular target: GlcA3S(b1-3)Gal(b1-4)GlcNAc(b1-2)Man
# Procedure, shortened: as §1
# [8] = molecular target: GlcA3S(b1-3)Gal(b1-4)GlcNAc(b1-3)Gal(b1-4)Glc
# Procedure, shortened: as §1
# [9] = molecular target: GlcNAc(a1-3)Gal(b1-4)GlcNAc
# Procedure, shortened: as §1
# [10] = molecular target: GlcNAc(a1-4)Gal(b1-3)GlcNAc
# Procedure, shortened: as §1
# [11] = molecular target: GlcNAc(a1-4)Gal(b1-4)GalNAc
# Procedure, shortened: as §1
# [12] = molecular target: GlcNAc(a1-4)Gal(b1-4)GlcNAc
# Procedure, shortened: as §1
# [13] = molecular target: GlcNAc(a1-4)Gal(b1-4)GlcNAc(b1-3)Gal(b1-4)Glc
# Procedure, shortened: as §1
# [14] = molecular target: GlcNAc(a1-4)Gal(b1-4)GlcNAc(b1-3)Gal(b1-4)GlcNAc
# Procedure, shortened: as §1
# [15] = molecular target: GlcNAc(a1-4)Gal(b1-4)GlcNAc(b1-3)Gal(b1-4)GlcNAc(b1-3)Gal(b1-4)GlcNAc
# Procedure, shortened: as §1
# [16] = molecular target: GlcNAc(a1-4)Gal(b1-4)GlcNAc(b1-3)Gal(b1-4)[Fuc(a1-3)]GlcNAc(b1-3)Gal(b1-4)[Fuc(a1-3)]GlcNAc
# Procedure, shortened: as §1
# [17] = molecular target: GlcNAc(a1-6)Gal(b1-4)GlcNAc
# Procedure, shortened: as §1
# [18] = molecular target: GlcNAc(b1-2)Gal(b1-3)GalNAc
# Procedure, shortened: as §1
# [19] = molecular target: GlcNAc(b1-2)Man(a1-3)[GlcNAc(b1-2)Man(a1-6)]Man(b1-4)GlcNAc(b1-4)GlcNAc
# Procedure, shortened: as §1
# [20] = molecular target: GlcNAc(b1-2)Man(a1-3)[GlcNAc(b1-2)Man(a1-6)]Man(b1-4)GlcNAc(b1-4)[Fuc(a1-6)]GlcNAc
# Procedure, shortened: as §1
# [21] = molecular target: GlcNAc(b1-2)Man(a1-3)[GlcNAc(b1-4)][GlcNAc(b1-2)Man(a1-6)]Man(b1-4)GlcNAc(b1-4)GlcNAc
# Procedure, shortened: as §1
# [22] = molecular target: GlcNAc(b1-2)Man(a1-3)[GlcNAc(b1-4)][GlcNAc(b1-2)Man(a1-6)]Man(b1-4)GlcNAc(b1-4)[Fuc(a1-6)]GlcNAc
# Procedure, shortened: as §1
# [23] = molecular target: GlcNAc(b1-2)[GlcNAc(b1-4)]Man(a1-3)[GlcNAc(b1-2)Man(a1-6)]Man(b1-4)GlcNAc(b1-4)GlcNAc
# Procedure, shortened: as §1
# [24] = molecular target: GlcNAc(b1-2)[GlcNAc(b1-4)]Man(a1-3)[GlcNAc(b1-4)][GlcNAc(b1-2)Man(a1-6)]Man(b1-4)GlcNAc(b1-4)GlcNAc
# Procedure, shortened: as §1
# [25] = molecular target: GlcNAc(b1-2)[GlcNAc(b1-4)]Man(a1-3)[GlcNAc(b1-4)][GlcNAc(b1-2)[GlcNAc(b1-6)]Man(a1-6)]Man(b1-4)GlcNAc(b1-4)GlcNAc
# Procedure, shortened: as §1
# [26] = molecular target: GlcNAc(b1-2)[GlcNAc(b1-4)]Man(a1-3)[GlcNAc(b1-4)][GlcNAc(b1-2)[GlcNAc(b1-6)]Man(a1-6)]Man(b1-4)GlcNAc(b1-4)[Fuc(a1-6)]GlcNAc
# Procedure, shortened: as §1
# [27] = molecular target: GlcNAc(b1-2)[GlcNAc(b1-6)]Man(a1-6)[GlcNAc(b1-2)Man(a1-3)]Man(b1-4)GlcNAc(b1-4)GlcNAc
# Procedure, shortened: as §1
# [28] = molecular target: GlcNAc(b1-2)[GlcNAc(b1-6)]Man(a1-6)[GlcNAc(b1-2)Man(a1-3)]Man(b1-4)GlcNAc(b1-4)[Fuc(a1-6)]GlcNAc
# Procedure, shortened: as §1
# [29] = molecular target: GlcNAc(b1-2)[GlcNAc(b1-6)]Man(a1-6)[GlcNAc(b1-4)][GlcNAc(b1-2)Man(a1-3)]Man(b1-4)GlcNAc(b1-4)GlcNAc
# Procedure, shortened: as §1
# GlcNAc(b1-3)Fuc = molecular target: GlcNAc(b1-3)Fuc
# Procedure, shortened: as §1
# GlcNAc(b1-3)Gal = molecular target: GlcNAc(b1-3)Gal
# Procedure, shortened: as §1
# [30] = molecular target: GlcNAc(b1-3)Gal(b1-3)GalNAc
# Procedure, shortened: as §1
binder,measurement,setting,value
Vd7LysM (Verticillium dahliae) (protein) RRGPEPKYPPAAGTSSYCSYWVDYEGDKSCSRVLEDNVVVLKDFARWNPTVGADCSGIKAGNSYCVEAFGEPEPIEVTTTTRAATTTTQPTATTTTFANGIATPQPTQSGMVTNCNKFHWIAEGVSCSQVISFQKITLADFVKWNPSVKSDCSGMWAGVNVCVGVVGSSTDTAKPTTTAPSNGVVTPQPTQPSMVTNCNKFHWIAKGVTCQQVISYQKISLADFVKWNPSVLSDCSGMWAEVQVCVGVIGSTPTTLATTTTTAGNGVSTPLPTQPGMVTNCAKFHWVAKGVTCNQIYSFQKITLEQFVSYNPTVKSDCSGMQAEVQVCVGLIAGTTPTTTRPPTTTAPGNGVSTPQPTQPGMVTNCAKFHWVAKGVTCNQIYSFQKITLEQFVSFNPTVKSDCTGMQAEVNVCVGLIGGNPTPTQTGNGIATPTPIQPGMVSNCKKFHWIAQGVTCQQVISFQKITLADFVKWNTGVGSDCRTMWAETNVCVGV,glycan array binding signal (z-score),[1],-0.164
same,glycan array binding signal (z-score),[2],-1.23
same,glycan array binding signal (z-score),[3],-0.179
same,glycan array binding signal (z-score),GalNAc(b1-4)GlcNAc6S,0.577
same,glycan array binding signal (z-score),GalNAc(b1-6)GalNAc,0.192
same,glycan array binding signal (z-score),GalNAc3S(b1-4)GlcNAc,1.75
same,glycan array binding signal (z-score),GalNAc3S(b1-4)GlcNAc3S,0.948
same,glycan array binding signal (z-score),[4],0.601
same,glycan array binding signal (z-score),GalNAc4S6S(b1-4)GlcNAc,-1.09
same,glycan array binding signal (z-score),GalNAc6S(b1-4)GlcNAc,0.22
same,glycan array binding signal (z-score),Glc(a1-4)Glc,0.352
same,glycan array binding signal (z-score),[5],0.035
same,glycan array binding signal (z-score),Glc(a1-6)Glc(a1-6)Glc,-0.851
same,glycan array binding signal (z-score),[6],-1.92
same,glycan array binding signal (z-score),Glc(b1-4)Glc,0.022
same,glycan array binding signal (z-score),Glc(b1-6)Glc,-1.06
same,glycan array binding signal (z-score),GlcA(b1-3)Gal,-0.323
same,glycan array binding signal (z-score),GlcA(b1-3)GlcNAc,-1.23
same,glycan array binding signal (z-score),GlcA(b1-6)Gal,-1.41
same,glycan array binding signal (z-score),[7],-1.1
same,glycan array binding signal (z-score),[8],-0.247
same,glycan array binding signal (z-score),[9],0.462
same,glycan array binding signal (z-score),[10],-0.658
same,glycan array binding signal (z-score),[11],0.043
same,glycan array binding signal (z-score),[12],0.042
same,glycan array binding signal (z-score),[13],-1.13
same,glycan array binding signal (z-score),[14],0.606
same,glycan array binding signal (z-score),[15],-0.633
same,glycan array binding signal (z-score),[16],1.23
same,glycan array binding signal (z-score),[17],-0.348
same,glycan array binding signal (z-score),[18],0.746
same,glycan array binding signal (z-score),[19],-0.761
same,glycan array binding signal (z-score),[20],1
same,glycan array binding signal (z-score),[21],-0.559
same,glycan array binding signal (z-score),[22],-0.264
same,glycan array binding signal (z-score),[23],-0.036
same,glycan array binding signal (z-score),[24],-1.69
same,glycan array binding signal (z-score),[25],0.565
same,glycan array binding signal (z-score),[26],-0.828
same,glycan array binding signal (z-score),[27],-0.461
same,glycan array binding signal (z-score),[28],0.907
same,glycan array binding signal (z-score),[29],1.31
same,glycan array binding signal (z-score),GlcNAc(b1-3)Fuc,-1.11
same,glycan array binding signal (z-score),GlcNAc(b1-3)Gal,-1.48
same,glycan array binding signal (z-score),[30],1.01

# 3 records drawn at random from the list so far:
binder,measurement,setting,value
Vd7LysM (Verticillium dahliae) (protein) RRGPEPKYPPAAGTSSYCSYWVDYEGDKSCSRVLEDNVVVLKDFARWNPTVGADCSGIKAGNSYCVEAFGEPEPIEVTTTTRAATTTTQPTATTTTFANGIATPQPTQSGMVTNCNKFHWIAEGVSCSQVISFQKITLADFVKWNPSVKSDCSGMWAGVNVCVGVVGSSTDTAKPTTTAPSNGVVTPQPTQPSMVTNCNKFHWIAKGVTCQQVISYQKISLADFVKWNPSVLSDCSGMWAEVQVCVGVIGSTPTTLATTTTTAGNGVSTPLPTQPGMVTNCAKFHWVAKGVTCNQIYSFQKITLEQFVSYNPTVKSDCSGMQAEVQVCVGLIAGTTPTTTRPPTTTAPGNGVSTPQPTQPGMVTNCAKFHWVAKGVTCNQIYSFQKITLEQFVSFNPTVKSDCTGMQAEVNVCVGLIGGNPTPTQTGNGIATPTPIQPGMVSNCKKFHWIAQGVTCQQVISFQKITLADFVKWNTGVGSDCRTMWAETNVCVGV,glycan array binding signal (z-score),[7],-1.1
same,glycan array binding signal (z-score),[24],-1.69
same,glycan array binding signal (z-score),[29],1.31
